Source: PubChem BioAssay AID743454 (Peter MacCallum Cancer Centre, 2014)
Here is one part, drawn at random, of about 18,000 deposited reagents. In the full data, 450 (2.5%) got an active call. 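Single biological run; no consistent viability z cut-off exists, so the class columns, not z-scores, define the calls.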 Entries without a mark were called inactive.

Assay: 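Genes whose loss kills vorinostat-resistant colon cancer cells under vorinostat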 (primary screen)
System: human HCT116-VR colon cancer cells, selected for vorinostat resistance
Reagents: siRNA pool against human genes, 40 nM siRNA pool
Duration: vorinostat for 24 h, read-out about 72 h after transfection
Treatment: vorinostat at 2.5 µM final
Detection: 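Two measures, CellTiter-Fluor viability and luminescent caspase 3/7 activity, each as fold change against same-plate mock wells, mean of duplicates, then screen-wide robust z-score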
Reading the numbers: viability robust z-score: higher = more viable cells than screen typical; caspase robust z-score: higher = more caspase 3/7 activity than screen typical
Hit rule: 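Hits are knock-downs in viability class RV1/RV2 or caspase class CA1/CA2, excluding ones that killed cells in the no-drug cell-count arm; hits then retested with single siRNAs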

With EDDM3B (GeneID 64184) [SID152150749], how do the results read?
viability hit class: no change; caspase hit class: no change; viability robust z-score: -1.47; caspase robust z-score: -1.38

With GNG5 (GeneID 2787) [SID152152504], what does the deposit list?
viability hit class: no change; caspase hit class: no change; viability robust z-score: -0.57; caspase robust z-score: 0.74

For LY6G5B (GeneID 58496) [SID152154791], what was measured?
viability hit class: no change; caspase hit class: no change; viability robust z-score: 0.82; caspase robust z-score: -0.77

What did the screen give for ETAA1 (GeneID 54465) [SID152147697]?
viability hit class: no change; caspase hit class: no change; viability robust z-score: 0.64; caspase robust z-score: 0.11

With ARG1 (GeneID 383) [SID134314614], what was measured?
viability hit class: no change; caspase hit class: no change; viability robust z-score: -1.51; caspase robust z-score: -0.4

How did the screen score CYP17A1 (GeneID 1586) [SID135621573]?
viability hit class: no change; caspase hit class: no change; viability robust z-score: -0.19; caspase robust z-score: -0.69

How did the screen score SLC34A3 (GeneID 142680) [SID152149300]?
viability hit class: no change; caspase hit class: no change; viability robust z-score: 0.16; caspase robust z-score: 0.16

What did the screen give for ZNF682 (GeneID 91120) [SID135622883]?
viability hit class: no change; caspase hit class: no change; viability robust z-score: 0.9; caspase robust z-score: -0.76

How did the screen score KYNU (GeneID 8942) [SID135621853]?
viability hit class: no change; caspase hit class: no change; viability robust z-score: 0.36; caspase robust z-score: -0.8

With EGFL8 (GeneID 80864) [SID152147835], what does the deposit list?
viability hit class: no change; caspase hit class: no change; viability robust z-score: 0.84; caspase robust z-score: -0.59

What did the screen give for RELN (GeneID 5649) [SID134316310]?
viability hit class: no change; caspase hit class: no change; viability robust z-score: 0.51; caspase robust z-score: 1.29

What is on record for RANGAP1 (GeneID 5905) [SID134312007]?
viability hit class: no change; caspase hit class: no change; viability robust z-score: 0.19; caspase robust z-score: -0.22

Which result is listed for OR6F1 (GeneID 343169) [SID134329904]?
viability hit class: no change; caspase hit class: no change; viability robust z-score: 0.17; caspase robust z-score: 1.64

With SOS1 (GeneID 6654) [SID134310796], what does the deposit list?
viability hit class: no change; caspase hit class: no change; viability robust z-score: -0.97; caspase robust z-score: -0.34

How did the screen score BICD1 (GeneID 636) [SID152150691]?
viability hit class: no change; caspase hit class: no change; viability robust z-score: 0.14; caspase robust z-score: -0.08

How did the screen score ZG16 (GeneID 653808) [SID134319723]?
viability hit class: no change; caspase hit class: no change; viability robust z-score: -0.54; caspase robust z-score: 3.71

What is on record for ALDH1L1 (GeneID 10840) [SID152154399]?
viability hit class: no change; caspase hit class: no change; viability robust z-score: -0.27; caspase robust z-score: -0.26

What did the screen give for SEMA4D (GeneID 10507) [SID134322704]?
viability hit class: no change; caspase hit class: no change; viability robust z-score: 0.76; caspase robust z-score: 1.07

What is on record for SEMA4D (GeneID 10507) [SID134323229]?
viability hit class: no change; caspase hit class: no change; viability robust z-score: -0.12; caspase robust z-score: 1.79

For EDC3 (GeneID 80153) [SID134321094], what was measured?
viability hit class: no change; caspase hit class: no change; viability robust z-score: -2.27; caspase robust z-score: 0.5

Which result is listed for POU5F2 (GeneID 134187) [SID134320709]?
viability hit class: no change; caspase hit class: no change; viability robust z-score: -1.4; caspase robust z-score: -0.58

2 of these entries in another layout.
gene | PubChem SID | viability hit class | caspase hit class | viability robust z-score | caspase robust z-score
SOS1 (GeneID 6654) | SID134310796 | no change | no change | -0.97 | -0.34
BICD1 (GeneID 636) | SID152150691 | no change | no change | 0.14 | -0.08
